The values that follow come from patent US20110256132A1.

These are yes or no findings as the source states them, for the method shown. Some results given as binding are weak or reduced against the parent protein; the word gives no strength.

The target in assay [1] is T1, mature myostatin released from latent complex following BMP-1 cleavage (mature human and mouse sequences 100% identical) (UniProt O08689).
T1 sequence: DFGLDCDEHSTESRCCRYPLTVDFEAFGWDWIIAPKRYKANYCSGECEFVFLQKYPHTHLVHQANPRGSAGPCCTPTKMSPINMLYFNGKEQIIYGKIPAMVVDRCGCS
Description: ELISA, antigen coated at 100 ng/well, dilution series of 10B3, peroxidase anti-mouse IgG F(ab')2, TMB, OD450 (Example 2.3).

In assay [2] the target is T1, mature myostatin released from latent complex following BMP-1 cleavage (mature human and mouse sequences 100% identical). Description: ELISA, plate-coated antigen (FIG. 4).

B1: mouse monoclonal antibody 10B3 (antibody, V domains shown)
VH: EVQLQQSGPELVKPGASVKISCKASGYSFTGYFMHWVKQSHGNILDWIGNIYPYNGVSNYNQRFKAKATLTVDKSSSTAYMELRSLTSEDSAVYYCARRYYYGTGPADWYFDVWGTGTTVTVSS
VL: DIKMTQSPSSMYASLRERVTITCKASQDINSYLSWFQQKPGKSPKTLIYRANRLVDGVPSRFSGSGSGQDYSLTISSLEYEDMGIYYCLQCDEFPLTFGAGTKLELK
In the case of B1, the binding entry in assay [1] and in assay [2] was “binds” each time.
